The results in this text go back to publication PMC12398889.

Assay [1] has as its target T1, Flag-CPNE5 (mouse CPNE5 cDNA with a Flag tag in pcDNA3.1(+)) (mouse) (UniProt Q8JZW4).
T1 sequence: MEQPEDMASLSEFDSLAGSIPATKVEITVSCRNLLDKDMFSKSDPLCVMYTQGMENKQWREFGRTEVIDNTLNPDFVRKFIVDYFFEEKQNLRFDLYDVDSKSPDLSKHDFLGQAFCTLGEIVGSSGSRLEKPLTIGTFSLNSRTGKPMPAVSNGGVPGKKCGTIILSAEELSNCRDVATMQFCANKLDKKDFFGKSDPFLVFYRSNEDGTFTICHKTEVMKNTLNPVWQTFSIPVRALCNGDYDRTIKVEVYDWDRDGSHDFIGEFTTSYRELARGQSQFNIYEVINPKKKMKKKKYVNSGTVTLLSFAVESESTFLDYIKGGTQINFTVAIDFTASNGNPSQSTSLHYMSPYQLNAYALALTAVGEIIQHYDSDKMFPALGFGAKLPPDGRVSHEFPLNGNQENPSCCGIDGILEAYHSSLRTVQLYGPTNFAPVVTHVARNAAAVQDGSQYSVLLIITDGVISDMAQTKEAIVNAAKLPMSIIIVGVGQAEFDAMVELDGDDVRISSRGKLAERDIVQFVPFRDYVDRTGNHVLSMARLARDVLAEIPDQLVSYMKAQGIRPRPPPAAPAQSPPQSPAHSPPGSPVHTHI
The assay can be described thus: co-IP; IP with anti-FLAG antibody on Protein A/G magnetic beads, 4°C 2 h, lysate of NMCMs transfected with Flag-Cpne5; immunoblot; IgG as negative control; also with FASL added to the cells.

The target of assay [2] is T2, Flag-CPNE5 expressed from AAV9-OE-Cpne5 (entire coding region of mouse CPNE5, cTNT promoter) (mouse) (UniProt Q8JZW4).
T2 sequence: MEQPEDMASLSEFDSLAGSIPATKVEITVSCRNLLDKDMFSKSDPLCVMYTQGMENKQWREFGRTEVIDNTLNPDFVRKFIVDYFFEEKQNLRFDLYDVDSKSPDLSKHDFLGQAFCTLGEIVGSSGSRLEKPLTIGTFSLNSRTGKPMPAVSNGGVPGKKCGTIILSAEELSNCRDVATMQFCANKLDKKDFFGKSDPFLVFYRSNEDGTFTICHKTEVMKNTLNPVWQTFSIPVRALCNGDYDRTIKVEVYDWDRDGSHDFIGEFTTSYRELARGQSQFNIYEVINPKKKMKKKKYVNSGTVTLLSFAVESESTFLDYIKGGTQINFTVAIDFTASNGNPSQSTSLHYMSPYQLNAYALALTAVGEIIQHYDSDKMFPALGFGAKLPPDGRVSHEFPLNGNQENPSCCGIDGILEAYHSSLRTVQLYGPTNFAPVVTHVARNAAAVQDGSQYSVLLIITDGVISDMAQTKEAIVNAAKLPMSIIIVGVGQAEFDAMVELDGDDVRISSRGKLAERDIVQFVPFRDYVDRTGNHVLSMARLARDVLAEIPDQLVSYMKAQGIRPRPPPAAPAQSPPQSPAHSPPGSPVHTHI
The assay can be described thus: co-IP; CPNE5 overexpressing mouse tissues (Figure S4); precipitating antibody not given.

In assay [3] the target is T3, FAS receptor (mouse (endogenous in neonatal mouse cardiomyocytes and mouse heart)), P25446.
T3 chain: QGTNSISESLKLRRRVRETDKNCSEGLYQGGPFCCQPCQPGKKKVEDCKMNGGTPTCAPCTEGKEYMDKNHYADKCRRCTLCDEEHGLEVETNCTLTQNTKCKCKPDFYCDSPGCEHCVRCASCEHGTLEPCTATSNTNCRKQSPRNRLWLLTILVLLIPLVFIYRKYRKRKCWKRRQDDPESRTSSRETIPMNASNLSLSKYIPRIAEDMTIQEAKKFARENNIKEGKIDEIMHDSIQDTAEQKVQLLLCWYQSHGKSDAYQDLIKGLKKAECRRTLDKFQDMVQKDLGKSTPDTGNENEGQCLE
In words: co-IP; IP with anti-FAS antibody on Protein A/G magnetic beads, 4°C 2 h, lysate of NMCMs transfected with Flag-Cpne5; immunoblot; IgG as negative control; also with FASL added to the cells. To be noted: remark: other sources report otherwise.

Results are given in words; binding and its absence hold for the method and conditions named. In cells and extracts the contact can be indirect. Some results given as binding are weak or reduced against the parent protein; the word gives no strength. For some assays here: Sequences can lack the tags named with a protein.

B1: CALCOCO1 (protein, UniProt Q8CGU1 1-691)
chain: MEESSLSRAPSRGGVNFLNVARTYIPNTKVECHYTLPPGTMPSASDWIGIFKVEAACVRDYHTFVWSSVPESTTDGSPTHASVQFQASYLPKPGAQLYQFRYVNRQGRVCGQSPPFQFREPRPMDELVTLEEADGGSDILLVVPKATVLQNQLDESQQERNDLMQLKLQLEDQVTELRSRVQELEAALATARQEHSELTEQYKGLSRSHGELSEERDILSQQQGDHVARILELEDDIQTMSDKVLMKEVELDRVRDTVKALTREQEKLLRQLKEFQADKEQSEAELQTVREENCCLNTELEEAKSRQEEQGAQVQRLKDKLAHMKDTLGQAQQKVAELEPLKEQLRGVQELAASSQQKAALLGEELASAAGARDRTIAELHRSRLEVAEVNGRLAELSLHMKEEKCQWSKERTGLLQSMEAEKDKILKLSAEILRLEKTVQEERTQSHVFKTELAREKDSSLVQLSESKRELTELRSALRVLQKEKEQLQTEKQELLEYMRKLEARLEKVADEKWTEDAATEDEEATAGLSCPASLTDSEDESPEDMRLPSYGLCESGNTSSSPPGPREPSSLVVINQPAPIAPQFSGPGEASSSDSEAEDEKSVLMAAVQSGGEEASLLLPELGSAFYDVASAFTVSSLSEASPGVPANPPWKECPICKERFPAESDKDALEGHMDGHFFFSTQDPFTFE
Consider B1, for which, in assay [1], the binding entry is listed as “binds”.

B2: FAS receptor (receptor, UniProt P25446 22-327)
chain: QGTNSISESLKLRRRVRETDKNCSEGLYQGGPFCCQPCQPGKKKVEDCKMNGGTPTCAPCTEGKEYMDKNHYADKCRRCTLCDEEHGLEVETNCTLTQNTKCKCKPDFYCDSPGCEHCVRCASCEHGTLEPCTATSNTNCRKQSPRNRLWLLTILVLLIPLVFIYRKYRKRKCWKRRQDDPESRTSSRETIPMNASNLSLSKYIPRIAEDMTIQEAKKFARENNIKEGKIDEIMHDSIQDTAEQKVQLLLCWYQSHGKSDAYQDLIKGLKKAECRRTLDKFQDMVQKDLGKSTPDTGNENEGQCLE
Take B2: the binding entry in assay [2] and in assay [1] was “binds” throughout.

B3: Fas-associated death domain (FADD) (protein, UniProt Q61160 1-205)
chain: MDPFLVLLHSLSGSLSGNDLMELKFLCRERVSKRKLERVQSGLDLFTVLLEQNDLERGHTGLLRELLASLRRHDLLQRLDDFEAGTATAAPPGEADLQVAFDIVCDNVGRDWKRLARELKVSEAKMDGIEEKYPRSLSERVRESLKVWKNAEKKNASVAGLVKALRTCRLNLVADLVEEAQESVSKSENMSPVLRDSTVSSSETP
As for B3, in assay [1], the binding entry was “no binding”.

B4: Fas-associated death domain (FADD), Q61160 1-205 (protein)
chain: MDPFLVLLHSLSGSLSGNDLMELKFLCRERVSKRKLERVQSGLDLFTVLLEQNDLERGHTGLLRELLASLRRHDLLQRLDDFEAGTATAAPPGEADLQVAFDIVCDNVGRDWKRLARELKVSEAKMDGIEEKYPRSLSERVRESLKVWKNAEKKNASVAGLVKALRTCRLNLVADLVEEAQESVSKSENMSPVLRDSTVSSSETP
As for B4, the binding entry in assay [3] is recorded as “no binding”.
